Reference: US7455840B2, “Compositions and methods to reduce mutagenesis” (priority 2003, dated 2008)

Tested on: wild type MG1655 E. coli

O=C(O)c1cn(C2CC2)c2cc(N3CCNCC3)c(F)cc2c1=O [ciprofloxacin]
number of mutations per viable cell per day after exposure to the antibiotic: 2.9(+/−0.41)×10^−5 mutations per viable cell per day | increase of number of mutations per viable cell per day after exposure to the antibiotic (solid media, 35 ng/mL ciprofloxacin, versus exponential growth before exposure): increased by at least four-orders of magnitude
